In the supplement of paper PMC7666118:
The other results are listed elsewhere or left out.

Chains of the proteins cited; added tags and fusions are not shown. Lines headed by an entry give the natural chain unless they say otherwise; changes in a name come on top.
UniProt O60921: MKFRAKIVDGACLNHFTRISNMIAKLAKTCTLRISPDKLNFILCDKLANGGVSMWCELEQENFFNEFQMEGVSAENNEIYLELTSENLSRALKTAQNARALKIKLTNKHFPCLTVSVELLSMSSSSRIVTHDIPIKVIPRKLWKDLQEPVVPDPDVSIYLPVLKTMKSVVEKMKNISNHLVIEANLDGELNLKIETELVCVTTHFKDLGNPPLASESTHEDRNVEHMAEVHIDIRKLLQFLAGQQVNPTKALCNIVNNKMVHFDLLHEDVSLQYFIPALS
UniProt P52758: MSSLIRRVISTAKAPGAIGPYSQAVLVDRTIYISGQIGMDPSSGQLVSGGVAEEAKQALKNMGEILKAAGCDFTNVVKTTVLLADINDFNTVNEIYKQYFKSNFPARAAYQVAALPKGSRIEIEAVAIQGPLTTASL
UniProt P11717, whole entry: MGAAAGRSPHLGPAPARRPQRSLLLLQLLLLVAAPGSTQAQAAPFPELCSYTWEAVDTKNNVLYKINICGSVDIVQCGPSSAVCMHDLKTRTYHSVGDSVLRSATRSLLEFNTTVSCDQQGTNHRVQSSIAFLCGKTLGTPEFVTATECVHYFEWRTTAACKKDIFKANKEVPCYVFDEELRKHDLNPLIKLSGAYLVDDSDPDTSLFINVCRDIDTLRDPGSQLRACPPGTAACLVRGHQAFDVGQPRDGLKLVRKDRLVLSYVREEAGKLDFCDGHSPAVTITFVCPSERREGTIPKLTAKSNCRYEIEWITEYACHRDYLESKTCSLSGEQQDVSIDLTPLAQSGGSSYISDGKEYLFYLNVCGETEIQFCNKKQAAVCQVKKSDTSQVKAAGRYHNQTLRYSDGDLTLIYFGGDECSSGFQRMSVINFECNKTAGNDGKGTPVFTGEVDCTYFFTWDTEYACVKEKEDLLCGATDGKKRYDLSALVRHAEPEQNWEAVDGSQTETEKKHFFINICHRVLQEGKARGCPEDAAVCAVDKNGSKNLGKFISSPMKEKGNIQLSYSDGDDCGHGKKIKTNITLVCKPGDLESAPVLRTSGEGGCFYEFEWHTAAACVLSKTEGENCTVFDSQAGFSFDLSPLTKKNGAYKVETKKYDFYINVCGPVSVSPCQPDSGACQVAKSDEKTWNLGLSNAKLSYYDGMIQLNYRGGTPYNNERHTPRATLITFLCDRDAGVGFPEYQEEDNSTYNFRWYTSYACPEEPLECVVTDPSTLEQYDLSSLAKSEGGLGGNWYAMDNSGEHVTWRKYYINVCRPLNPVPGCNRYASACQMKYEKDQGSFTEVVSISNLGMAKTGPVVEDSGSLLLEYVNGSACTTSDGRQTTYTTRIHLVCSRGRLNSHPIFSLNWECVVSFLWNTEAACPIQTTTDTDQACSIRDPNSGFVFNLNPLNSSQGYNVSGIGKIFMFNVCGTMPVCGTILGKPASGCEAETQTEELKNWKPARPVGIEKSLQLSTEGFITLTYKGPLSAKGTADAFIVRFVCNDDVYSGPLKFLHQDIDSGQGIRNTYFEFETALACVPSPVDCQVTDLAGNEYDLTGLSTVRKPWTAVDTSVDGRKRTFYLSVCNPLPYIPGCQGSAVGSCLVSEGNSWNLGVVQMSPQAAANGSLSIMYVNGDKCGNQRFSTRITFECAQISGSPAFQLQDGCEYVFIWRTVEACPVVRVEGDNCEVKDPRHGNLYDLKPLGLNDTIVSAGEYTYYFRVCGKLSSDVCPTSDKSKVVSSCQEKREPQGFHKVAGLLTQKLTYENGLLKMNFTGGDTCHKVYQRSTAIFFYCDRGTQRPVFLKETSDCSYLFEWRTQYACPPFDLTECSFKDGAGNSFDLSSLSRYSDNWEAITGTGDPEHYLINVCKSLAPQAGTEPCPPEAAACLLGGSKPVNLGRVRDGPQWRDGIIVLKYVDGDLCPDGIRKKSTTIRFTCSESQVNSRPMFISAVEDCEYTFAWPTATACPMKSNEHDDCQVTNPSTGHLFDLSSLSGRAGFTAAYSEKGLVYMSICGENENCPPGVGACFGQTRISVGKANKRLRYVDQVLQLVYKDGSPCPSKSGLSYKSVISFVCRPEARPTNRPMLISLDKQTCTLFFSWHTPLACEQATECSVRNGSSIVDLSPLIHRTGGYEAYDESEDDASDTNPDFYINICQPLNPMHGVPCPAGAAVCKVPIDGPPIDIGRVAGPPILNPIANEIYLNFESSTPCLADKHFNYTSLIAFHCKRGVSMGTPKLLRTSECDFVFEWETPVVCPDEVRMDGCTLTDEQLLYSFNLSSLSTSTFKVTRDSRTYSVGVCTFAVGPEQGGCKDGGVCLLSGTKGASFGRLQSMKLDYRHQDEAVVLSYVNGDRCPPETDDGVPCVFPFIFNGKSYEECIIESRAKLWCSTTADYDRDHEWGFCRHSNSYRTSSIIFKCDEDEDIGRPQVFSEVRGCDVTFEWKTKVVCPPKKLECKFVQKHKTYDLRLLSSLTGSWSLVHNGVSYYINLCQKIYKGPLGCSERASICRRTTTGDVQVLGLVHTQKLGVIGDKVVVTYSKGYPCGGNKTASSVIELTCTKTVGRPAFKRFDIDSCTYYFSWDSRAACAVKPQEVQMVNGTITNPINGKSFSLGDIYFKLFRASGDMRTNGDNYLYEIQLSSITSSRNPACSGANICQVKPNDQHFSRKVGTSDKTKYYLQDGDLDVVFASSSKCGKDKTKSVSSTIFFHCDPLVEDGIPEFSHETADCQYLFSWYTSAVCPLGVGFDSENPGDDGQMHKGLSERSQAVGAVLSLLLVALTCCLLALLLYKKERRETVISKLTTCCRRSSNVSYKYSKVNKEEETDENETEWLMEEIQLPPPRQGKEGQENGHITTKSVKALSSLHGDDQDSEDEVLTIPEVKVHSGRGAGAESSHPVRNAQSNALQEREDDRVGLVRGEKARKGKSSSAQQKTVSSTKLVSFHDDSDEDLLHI
UniProt Q68E01, whole entry: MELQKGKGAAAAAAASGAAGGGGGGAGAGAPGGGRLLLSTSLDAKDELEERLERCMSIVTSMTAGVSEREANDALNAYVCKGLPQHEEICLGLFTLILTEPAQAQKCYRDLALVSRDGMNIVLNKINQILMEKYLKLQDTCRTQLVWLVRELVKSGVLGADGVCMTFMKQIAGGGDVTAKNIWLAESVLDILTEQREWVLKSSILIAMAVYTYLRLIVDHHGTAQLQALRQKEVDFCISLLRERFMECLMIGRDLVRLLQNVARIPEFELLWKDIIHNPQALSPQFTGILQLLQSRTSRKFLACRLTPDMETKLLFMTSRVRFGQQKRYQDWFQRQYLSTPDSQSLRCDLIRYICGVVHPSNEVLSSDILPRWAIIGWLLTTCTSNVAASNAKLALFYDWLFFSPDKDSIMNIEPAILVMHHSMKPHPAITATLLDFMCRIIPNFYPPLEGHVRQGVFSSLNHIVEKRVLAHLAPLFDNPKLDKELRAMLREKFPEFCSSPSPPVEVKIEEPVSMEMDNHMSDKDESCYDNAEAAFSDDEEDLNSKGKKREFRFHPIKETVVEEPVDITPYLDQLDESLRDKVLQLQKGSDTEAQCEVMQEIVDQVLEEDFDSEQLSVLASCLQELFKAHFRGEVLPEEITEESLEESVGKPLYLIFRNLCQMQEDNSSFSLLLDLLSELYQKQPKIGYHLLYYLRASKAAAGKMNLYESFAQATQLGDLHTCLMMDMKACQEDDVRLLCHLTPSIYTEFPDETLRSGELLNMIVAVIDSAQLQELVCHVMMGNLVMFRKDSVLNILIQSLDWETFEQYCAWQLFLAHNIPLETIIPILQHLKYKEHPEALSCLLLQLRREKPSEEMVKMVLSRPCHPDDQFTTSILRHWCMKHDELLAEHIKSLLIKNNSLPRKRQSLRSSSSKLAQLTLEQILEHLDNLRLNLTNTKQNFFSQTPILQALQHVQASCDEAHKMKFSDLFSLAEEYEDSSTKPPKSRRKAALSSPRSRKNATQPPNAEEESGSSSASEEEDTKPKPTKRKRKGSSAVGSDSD
UniProt P08069, whole entry, looked up: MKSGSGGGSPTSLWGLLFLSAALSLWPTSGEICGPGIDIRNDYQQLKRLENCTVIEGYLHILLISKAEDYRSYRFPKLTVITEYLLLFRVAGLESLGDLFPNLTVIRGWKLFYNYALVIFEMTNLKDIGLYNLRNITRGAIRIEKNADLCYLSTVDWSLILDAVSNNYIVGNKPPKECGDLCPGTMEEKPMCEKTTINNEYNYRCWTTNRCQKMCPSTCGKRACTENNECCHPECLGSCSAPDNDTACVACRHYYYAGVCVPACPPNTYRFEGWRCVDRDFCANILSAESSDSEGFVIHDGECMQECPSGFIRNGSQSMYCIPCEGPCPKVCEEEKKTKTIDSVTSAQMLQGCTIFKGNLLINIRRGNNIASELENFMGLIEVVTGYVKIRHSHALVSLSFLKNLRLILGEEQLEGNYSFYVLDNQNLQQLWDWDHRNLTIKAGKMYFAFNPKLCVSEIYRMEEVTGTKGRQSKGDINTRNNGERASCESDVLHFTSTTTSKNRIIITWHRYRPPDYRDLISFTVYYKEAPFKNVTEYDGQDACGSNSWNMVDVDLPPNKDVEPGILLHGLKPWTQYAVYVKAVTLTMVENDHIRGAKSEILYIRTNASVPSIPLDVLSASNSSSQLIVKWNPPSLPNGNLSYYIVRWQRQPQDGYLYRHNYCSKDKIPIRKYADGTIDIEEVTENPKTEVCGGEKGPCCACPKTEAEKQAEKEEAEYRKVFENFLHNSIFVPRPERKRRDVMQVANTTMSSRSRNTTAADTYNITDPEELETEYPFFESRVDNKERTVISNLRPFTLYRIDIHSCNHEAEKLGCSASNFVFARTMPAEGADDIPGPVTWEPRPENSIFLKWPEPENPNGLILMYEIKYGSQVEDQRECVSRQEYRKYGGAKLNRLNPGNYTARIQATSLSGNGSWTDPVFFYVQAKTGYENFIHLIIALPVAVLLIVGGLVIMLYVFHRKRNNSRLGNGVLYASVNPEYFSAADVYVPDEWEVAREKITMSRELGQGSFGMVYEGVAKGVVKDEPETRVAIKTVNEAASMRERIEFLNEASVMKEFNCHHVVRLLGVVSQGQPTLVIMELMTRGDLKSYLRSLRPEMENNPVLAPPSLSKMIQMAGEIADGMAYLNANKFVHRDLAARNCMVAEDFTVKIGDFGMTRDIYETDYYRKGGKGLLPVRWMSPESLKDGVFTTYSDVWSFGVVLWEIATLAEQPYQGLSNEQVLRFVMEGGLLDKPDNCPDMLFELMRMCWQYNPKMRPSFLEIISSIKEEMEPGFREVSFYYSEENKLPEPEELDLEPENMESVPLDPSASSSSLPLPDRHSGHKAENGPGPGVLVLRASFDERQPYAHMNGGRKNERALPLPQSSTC
UniProt P05161, whole entry: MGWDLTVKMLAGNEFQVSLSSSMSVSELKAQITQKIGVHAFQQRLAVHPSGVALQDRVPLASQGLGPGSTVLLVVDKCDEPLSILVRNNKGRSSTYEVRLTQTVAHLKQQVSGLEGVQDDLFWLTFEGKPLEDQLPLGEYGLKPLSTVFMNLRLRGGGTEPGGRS
UniProt Q9P2H3, whole entry: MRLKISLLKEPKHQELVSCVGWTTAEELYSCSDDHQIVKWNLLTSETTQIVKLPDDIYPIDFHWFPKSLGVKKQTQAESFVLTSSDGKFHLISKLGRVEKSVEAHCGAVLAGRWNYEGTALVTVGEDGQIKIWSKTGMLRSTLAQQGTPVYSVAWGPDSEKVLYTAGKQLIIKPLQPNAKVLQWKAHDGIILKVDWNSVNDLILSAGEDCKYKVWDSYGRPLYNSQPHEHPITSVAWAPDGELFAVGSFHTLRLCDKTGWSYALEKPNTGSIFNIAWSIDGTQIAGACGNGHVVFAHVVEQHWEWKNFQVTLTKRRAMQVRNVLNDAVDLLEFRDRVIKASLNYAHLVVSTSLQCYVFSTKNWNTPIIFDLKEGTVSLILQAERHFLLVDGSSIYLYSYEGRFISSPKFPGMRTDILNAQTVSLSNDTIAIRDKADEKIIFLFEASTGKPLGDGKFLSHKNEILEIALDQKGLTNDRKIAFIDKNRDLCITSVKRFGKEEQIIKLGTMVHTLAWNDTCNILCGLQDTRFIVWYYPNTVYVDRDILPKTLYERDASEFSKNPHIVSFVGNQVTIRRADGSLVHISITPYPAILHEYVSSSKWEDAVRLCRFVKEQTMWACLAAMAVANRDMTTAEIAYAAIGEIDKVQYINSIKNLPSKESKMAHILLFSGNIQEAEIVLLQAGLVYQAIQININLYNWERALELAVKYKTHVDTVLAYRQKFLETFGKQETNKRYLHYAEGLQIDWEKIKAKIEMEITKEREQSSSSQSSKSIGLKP
UniProt Q13155: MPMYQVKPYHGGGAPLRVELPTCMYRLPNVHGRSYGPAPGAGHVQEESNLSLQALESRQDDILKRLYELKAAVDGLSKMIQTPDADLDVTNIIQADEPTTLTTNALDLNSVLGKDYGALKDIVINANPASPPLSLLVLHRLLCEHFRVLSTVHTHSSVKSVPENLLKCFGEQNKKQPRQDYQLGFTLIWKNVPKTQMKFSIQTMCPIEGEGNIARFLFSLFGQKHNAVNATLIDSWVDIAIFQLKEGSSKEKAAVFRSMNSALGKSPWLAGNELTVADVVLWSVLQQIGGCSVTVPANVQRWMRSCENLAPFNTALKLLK

compound: COc1ccc(Cn2ccc3ccc(C(=O)NO)cc32)cc1; assay: dose-dependent thermal stabilisation call (2D-TPP, DLPTP, 10% FDR) (binary (1 = stabilised)); higher = stabilised by the compound; settings: system: HL-60 intact cells; concentration range 0.04-10 µM

| Target | dose-dependent thermal stabilisation call |
| --- | --- |
| IP6K1 (UniProt Q92551) | inactive: 0 |
| HMGN4 (UniProt O00479) | inactive: 0 |
| ITPK1 (UniProt Q13572) | inactive: 0 |
| HMBS (UniProt P08397) | inactive: 0 |
| KCNAB2 (UniProt Q13303) | inactive: 0 |
| KIAA0427 (UniProt O43310) | inactive: 0 |
| IMPACT (UniProt Q9P2X3) | inactive: 0 |
| HSCB (UniProt Q8IWL3) | inactive: 0 |
| HUS1 (UniProt O60921) | inactive: 0 |
| IMMT (UniProt Q16891) | inactive: 0 |
| HPS4 (UniProt Q9NQG7) | inactive: 0 |
| JARID1C (UniProt P41229) | inactive: 0 |
| ITCH (UniProt Q96J02) | inactive: 0 |
| HSD17B11 (UniProt Q8NBQ5) | inactive: 0 |
| IGSF8 (UniProt Q969P0) | inactive: 0 |
| HSPA5 (UniProt P11021) | inactive: 0 |
| HRSP12 (UniProt P52758) | inactive: 0 |
| INPP5D (UniProt Q92835) | inactive: 0 |
| HMGN2 (UniProt P05204) | inactive: 0 |

Part of the list above, comma-delimited.
Target,dose-dependent thermal stabilisation call
HRSP12 (UniProt P52758),inactive: 0
INPP5D (UniProt Q92835),inactive: 0
HMGN2 (UniProt P05204),inactive: 0

The listing continues:

| Target | dose-dependent thermal stabilisation call |
| --- | --- |
| HNRNPR (UniProt O43390) | inactive: 0 |
| HSPBP1 (UniProt Q9NZL4) | inactive: 0 |
| HSPB11 (UniProt Q9Y547) | inactive: 0 |
| JMJD5 (UniProt Q8N371) | inactive: 0 |
| IGF2R (UniProt P11717) | inactive: 0 |
| INTS3 (UniProt Q68E01) | inactive: 0 |
| ILK (UniProt Q13418) | inactive: 0 |
| IGF1R (UniProt P08069) | inactive: 0 |
| IPO11 (UniProt Q9UI26) | inactive: 0 |
| INTS2 (UniProt Q9H0H0) | inactive: 0 |
| HNRPDL (UniProt O14979) | inactive: 0 |
| INTS8 (UniProt Q75QN2) | inactive: 0 |
| ISG15 (UniProt P05161) | inactive: 0 |
| HMOX2 (UniProt P30519) | active: 1 |
| IFT80 (UniProt Q9P2H3) | inactive: 0 |
| HMG20A (UniProt Q9NP66) | inactive: 0 |
| INTS9 (UniProt Q9NV88) | inactive: 0 |
| JTV1 (UniProt Q13155) | inactive: 0 |
